Measurements reported in paper PMC12449798.
These are yes or no findings as the source states them, for the method shown. Binding seen in cells or lysates may run through a third protein. Binding calls can cover weak binding; strength is not graded here. Tags and fused reporters may be left off the sequences shown.

T1: O-linked N-acetylglucosamine (GlcNAc) transferase (pig (endogenous in porcine granulosa cells)) (UniProt Q27HV0)
T1 sequence: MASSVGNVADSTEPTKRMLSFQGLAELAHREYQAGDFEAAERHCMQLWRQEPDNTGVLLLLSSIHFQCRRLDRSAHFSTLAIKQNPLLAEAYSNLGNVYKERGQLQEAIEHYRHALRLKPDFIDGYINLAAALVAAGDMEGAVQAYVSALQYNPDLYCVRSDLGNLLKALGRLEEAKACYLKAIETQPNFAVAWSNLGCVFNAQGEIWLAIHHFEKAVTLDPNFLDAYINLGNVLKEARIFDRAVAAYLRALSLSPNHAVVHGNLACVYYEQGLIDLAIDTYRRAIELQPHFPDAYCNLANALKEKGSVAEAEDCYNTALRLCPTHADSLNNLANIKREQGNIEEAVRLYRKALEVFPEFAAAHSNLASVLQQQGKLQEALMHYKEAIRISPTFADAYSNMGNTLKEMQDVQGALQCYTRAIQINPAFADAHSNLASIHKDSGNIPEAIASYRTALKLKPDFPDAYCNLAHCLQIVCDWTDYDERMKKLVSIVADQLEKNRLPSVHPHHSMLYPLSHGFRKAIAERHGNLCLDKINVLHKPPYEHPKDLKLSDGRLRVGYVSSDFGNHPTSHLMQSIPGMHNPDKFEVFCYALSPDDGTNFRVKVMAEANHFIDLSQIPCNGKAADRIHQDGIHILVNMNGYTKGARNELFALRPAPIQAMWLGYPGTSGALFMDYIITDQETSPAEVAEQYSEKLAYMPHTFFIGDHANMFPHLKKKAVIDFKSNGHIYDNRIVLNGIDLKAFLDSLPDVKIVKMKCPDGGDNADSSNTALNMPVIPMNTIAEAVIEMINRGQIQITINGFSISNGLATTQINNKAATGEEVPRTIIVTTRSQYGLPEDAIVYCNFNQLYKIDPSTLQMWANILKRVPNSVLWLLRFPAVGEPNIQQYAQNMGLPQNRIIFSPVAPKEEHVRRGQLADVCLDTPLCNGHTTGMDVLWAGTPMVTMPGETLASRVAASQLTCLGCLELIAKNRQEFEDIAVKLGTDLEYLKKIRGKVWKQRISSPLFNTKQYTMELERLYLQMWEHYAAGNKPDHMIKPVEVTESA

B1: O-linked N-acetylglucosamine (GlcNAc) transferase (enzyme, UniProt Q27HV0 1-1046)
chain: MASSVGNVADSTEPTKRMLSFQGLAELAHREYQAGDFEAAERHCMQLWRQEPDNTGVLLLLSSIHFQCRRLDRSAHFSTLAIKQNPLLAEAYSNLGNVYKERGQLQEAIEHYRHALRLKPDFIDGYINLAAALVAAGDMEGAVQAYVSALQYNPDLYCVRSDLGNLLKALGRLEEAKACYLKAIETQPNFAVAWSNLGCVFNAQGEIWLAIHHFEKAVTLDPNFLDAYINLGNVLKEARIFDRAVAAYLRALSLSPNHAVVHGNLACVYYEQGLIDLAIDTYRRAIELQPHFPDAYCNLANALKEKGSVAEAEDCYNTALRLCPTHADSLNNLANIKREQGNIEEAVRLYRKALEVFPEFAAAHSNLASVLQQQGKLQEALMHYKEAIRISPTFADAYSNMGNTLKEMQDVQGALQCYTRAIQINPAFADAHSNLASIHKDSGNIPEAIASYRTALKLKPDFPDAYCNLAHCLQIVCDWTDYDERMKKLVSIVADQLEKNRLPSVHPHHSMLYPLSHGFRKAIAERHGNLCLDKINVLHKPPYEHPKDLKLSDGRLRVGYVSSDFGNHPTSHLMQSIPGMHNPDKFEVFCYALSPDDGTNFRVKVMAEANHFIDLSQIPCNGKAADRIHQDGIHILVNMNGYTKGARNELFALRPAPIQAMWLGYPGTSGALFMDYIITDQETSPAEVAEQYSEKLAYMPHTFFIGDHANMFPHLKKKAVIDFKSNGHIYDNRIVLNGIDLKAFLDSLPDVKIVKMKCPDGGDNADSSNTALNMPVIPMNTIAEAVIEMINRGQIQITINGFSISNGLATTQINNKAATGEEVPRTIIVTTRSQYGLPEDAIVYCNFNQLYKIDPSTLQMWANILKRVPNSVLWLLRFPAVGEPNIQQYAQNMGLPQNRIIFSPVAPKEEHVRRGQLADVCLDTPLCNGHTTGMDVLWAGTPMVTMPGETLASRVAASQLTCLGCLELIAKNRQEFEDIAVKLGTDLEYLKKIRGKVWKQRISSPLFNTKQYTMELERLYLQMWEHYAAGNKPDHMIKPVEVTESA

Legend:
[1] = molecular target: T1, O-linked N-acetylglucosamine (GlcNAc) transferase (pig (endogenous in porcine granulosa cells)); assay: co-IP; endogenous proteins in whole-cell lysates of porcine granulosa cells under hypoxic conditions (1% O2), transfected with siNC, siHIF1A#1 or siHIF1A#3; antibody overnight at 4 °C, protein A/G magnetic beads, immunoblot
[2] = molecular target: vascular endothelial zinc finger 1 (pig (endogenous in porcine granulosa cells)); assay: as above

Molecule	binding [1]	binding [2]
beta-transducin repeat containing protein	binds	
B1		binds
